Laboratory results from paper PMC12116906.
Results are given in words; binding and its absence hold for the method and conditions named. Binding seen in cells or lysates may run through a third protein. Some entries that bind do so weakly or less than the wild type.

Sequences of proteins named here, by UniProt entry; tags and fusion partners are left off.
UniProt P09216: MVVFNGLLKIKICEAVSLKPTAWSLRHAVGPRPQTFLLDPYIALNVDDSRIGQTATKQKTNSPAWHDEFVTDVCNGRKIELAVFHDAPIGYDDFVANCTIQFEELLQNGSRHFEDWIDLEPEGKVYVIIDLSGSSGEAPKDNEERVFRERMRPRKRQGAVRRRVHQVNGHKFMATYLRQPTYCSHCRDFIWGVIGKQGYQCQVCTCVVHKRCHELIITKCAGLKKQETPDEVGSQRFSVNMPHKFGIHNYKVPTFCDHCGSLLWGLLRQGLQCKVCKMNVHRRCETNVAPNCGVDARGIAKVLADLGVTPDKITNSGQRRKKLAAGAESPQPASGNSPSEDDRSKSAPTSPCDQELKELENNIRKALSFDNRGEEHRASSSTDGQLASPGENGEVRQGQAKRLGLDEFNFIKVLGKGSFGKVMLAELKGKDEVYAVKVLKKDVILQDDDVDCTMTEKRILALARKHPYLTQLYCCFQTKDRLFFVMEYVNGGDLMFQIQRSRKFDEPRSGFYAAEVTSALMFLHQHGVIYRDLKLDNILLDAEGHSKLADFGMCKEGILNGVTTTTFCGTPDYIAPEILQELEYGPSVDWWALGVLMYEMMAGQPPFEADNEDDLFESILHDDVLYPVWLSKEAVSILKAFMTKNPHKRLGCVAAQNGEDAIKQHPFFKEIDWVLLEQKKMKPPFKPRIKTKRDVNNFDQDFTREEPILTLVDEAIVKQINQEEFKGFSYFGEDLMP

Biological target: protein kinase C epsilon (rat (endogenous in neonatal rat ventricle cardiomyocytes)) (UniProt P09216)
Assay: co-IP; endogenous proteins; 100 µg of NRVM cell homogenate protein incubated with anti-PKC-ε antibody or control IgG for 16 h at 4 °C, True-Blot IP beads for 2 h, washed three times with lysis buffer; SIRT1 detected by Western blot; cells untreated or treated with 1 µM DOX for 24 h (less SIRT1 in the precipitate after DOX)

B1: sirtuin-1 (enzyme, UniProt A0A0G2JZ79 1-741)
chain: MADEAALALQAGGSPSAAAAMEAASQPADEPLRKRPRRDGPGLGRSPGEPSAAAAAAAAAAGCEAASAAAPAALWREAAGAAAASAEREAPATAAAGDGDNGPGLRREPRAADDFDDDEGEEEDEAAAAAAAAIGYRDNLLLADEIITNGFHSCESDDDDRASHASSSDWTPRPRIGPYTFVQQHLMIGTDPRTILKDLLPETIPPPELDDMTLWQIVINILSEPPKRKKRKDINTIEDAVKLLQECKKIIVLTGAGVSVSCGIPDFRSRDGIYARLAVDFPDLPDPQAMFDIEYFRKDPRPFFKFAKEIYPGQFQPSLCHKFIALSDKEGKLLRNYTQNIDTLEQVAGIQRIIQCHGSFATASCLICKYKVDCEAVRGDIFNQVVPRCPRCPADEPLAIMKPEIVFFGENLPEQFHRAMKYDKDEVDLLIVIGSSLKVRPVALIPSSIPHEVPQILINREPLPHLHFDVELLGDCDVIINELCHRLGGEYAKLCCNPVKLSEITEKPPRTQKELVHLSELPPTPLHISEDSSSPERTVPQDSSVIATLVDQTIKNKVDDLEVSEPKSCVEEKSQEVQTYRNVESINVENPDFKAVGSSTGDKNERTSVAETVRKCWPNRLAKEQISKRLDGNQYLFVPPNRYIFHGAEVYSDSEDDALSSSSCGSNSDSGTCQSPSLEEPLEDESEIEEFYNGLEDDADRPECAGGSGADGGDQEAVNEAIAMKQELTDVNCTPDKSEHY
- binding: binds
